Results on 40 targets are retold here after the supplement of paper PMC7666118.

By UniProt entry, the sequences of proteins in these tests, tags left out. Where a name states a change or a piece, a line headed by the entry shows the natural chain unless it says otherwise.
UniProt O75688: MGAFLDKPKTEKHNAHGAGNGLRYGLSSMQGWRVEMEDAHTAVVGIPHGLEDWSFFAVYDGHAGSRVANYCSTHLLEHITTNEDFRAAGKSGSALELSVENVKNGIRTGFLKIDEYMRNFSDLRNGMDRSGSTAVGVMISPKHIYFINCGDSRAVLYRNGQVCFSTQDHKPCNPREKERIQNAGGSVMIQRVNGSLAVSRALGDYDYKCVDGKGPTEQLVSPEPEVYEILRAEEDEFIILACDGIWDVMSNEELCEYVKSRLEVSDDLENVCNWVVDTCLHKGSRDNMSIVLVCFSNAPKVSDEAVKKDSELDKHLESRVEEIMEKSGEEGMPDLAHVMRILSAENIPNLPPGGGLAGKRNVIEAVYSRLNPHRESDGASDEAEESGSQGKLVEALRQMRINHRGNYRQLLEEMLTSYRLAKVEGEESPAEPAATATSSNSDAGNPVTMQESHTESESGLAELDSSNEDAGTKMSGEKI
UniProt Q7RTV0, whole entry, looked up: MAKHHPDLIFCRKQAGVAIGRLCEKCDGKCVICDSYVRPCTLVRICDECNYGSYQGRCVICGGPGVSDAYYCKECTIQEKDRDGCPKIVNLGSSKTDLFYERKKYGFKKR
UniProt P19174: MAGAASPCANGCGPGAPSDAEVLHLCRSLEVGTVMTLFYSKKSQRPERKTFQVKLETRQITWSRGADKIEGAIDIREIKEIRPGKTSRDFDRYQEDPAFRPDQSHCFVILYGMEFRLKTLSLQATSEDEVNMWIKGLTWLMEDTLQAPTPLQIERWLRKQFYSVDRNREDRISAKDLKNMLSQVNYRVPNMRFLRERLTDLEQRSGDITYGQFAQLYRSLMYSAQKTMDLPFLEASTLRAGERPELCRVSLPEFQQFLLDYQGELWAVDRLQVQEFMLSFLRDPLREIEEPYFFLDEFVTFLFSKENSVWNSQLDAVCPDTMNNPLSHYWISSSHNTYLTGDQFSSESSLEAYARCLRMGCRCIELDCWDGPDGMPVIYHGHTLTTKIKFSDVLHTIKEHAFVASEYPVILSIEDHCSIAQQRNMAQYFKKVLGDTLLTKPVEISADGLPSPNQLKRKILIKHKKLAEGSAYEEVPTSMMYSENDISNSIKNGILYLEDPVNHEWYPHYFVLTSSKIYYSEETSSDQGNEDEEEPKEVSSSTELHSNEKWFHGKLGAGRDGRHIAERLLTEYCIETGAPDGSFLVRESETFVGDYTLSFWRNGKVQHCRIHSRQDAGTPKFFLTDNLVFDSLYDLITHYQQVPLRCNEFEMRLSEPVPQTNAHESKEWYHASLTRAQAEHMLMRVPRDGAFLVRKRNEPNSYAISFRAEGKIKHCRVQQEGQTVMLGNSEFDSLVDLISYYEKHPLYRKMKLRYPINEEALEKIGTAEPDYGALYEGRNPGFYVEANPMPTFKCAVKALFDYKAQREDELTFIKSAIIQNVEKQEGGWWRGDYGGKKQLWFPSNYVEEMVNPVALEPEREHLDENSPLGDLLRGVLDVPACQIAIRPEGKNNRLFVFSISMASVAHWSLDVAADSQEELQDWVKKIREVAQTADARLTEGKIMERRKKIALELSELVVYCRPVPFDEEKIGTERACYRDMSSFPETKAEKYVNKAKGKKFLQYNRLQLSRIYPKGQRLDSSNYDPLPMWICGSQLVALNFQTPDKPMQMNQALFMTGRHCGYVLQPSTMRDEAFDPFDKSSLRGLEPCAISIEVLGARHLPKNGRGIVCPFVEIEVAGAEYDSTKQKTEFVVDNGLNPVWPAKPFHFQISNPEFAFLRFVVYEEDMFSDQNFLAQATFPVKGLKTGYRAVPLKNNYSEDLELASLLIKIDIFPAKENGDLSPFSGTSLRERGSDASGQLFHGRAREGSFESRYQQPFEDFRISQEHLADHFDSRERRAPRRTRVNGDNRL
UniProt P53041: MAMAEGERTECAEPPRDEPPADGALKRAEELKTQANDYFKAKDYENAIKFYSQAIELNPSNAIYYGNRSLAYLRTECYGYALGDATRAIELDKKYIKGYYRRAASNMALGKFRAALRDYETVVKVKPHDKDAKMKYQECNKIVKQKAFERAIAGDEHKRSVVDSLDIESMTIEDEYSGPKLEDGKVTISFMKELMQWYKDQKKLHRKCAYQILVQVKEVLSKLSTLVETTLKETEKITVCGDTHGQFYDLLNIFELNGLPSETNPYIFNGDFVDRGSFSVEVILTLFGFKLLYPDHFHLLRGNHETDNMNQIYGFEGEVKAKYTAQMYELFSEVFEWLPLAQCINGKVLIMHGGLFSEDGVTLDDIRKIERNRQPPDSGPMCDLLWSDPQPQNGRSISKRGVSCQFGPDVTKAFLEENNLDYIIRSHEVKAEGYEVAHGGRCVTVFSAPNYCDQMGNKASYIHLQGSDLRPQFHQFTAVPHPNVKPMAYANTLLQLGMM
UniProt Q8TCS8: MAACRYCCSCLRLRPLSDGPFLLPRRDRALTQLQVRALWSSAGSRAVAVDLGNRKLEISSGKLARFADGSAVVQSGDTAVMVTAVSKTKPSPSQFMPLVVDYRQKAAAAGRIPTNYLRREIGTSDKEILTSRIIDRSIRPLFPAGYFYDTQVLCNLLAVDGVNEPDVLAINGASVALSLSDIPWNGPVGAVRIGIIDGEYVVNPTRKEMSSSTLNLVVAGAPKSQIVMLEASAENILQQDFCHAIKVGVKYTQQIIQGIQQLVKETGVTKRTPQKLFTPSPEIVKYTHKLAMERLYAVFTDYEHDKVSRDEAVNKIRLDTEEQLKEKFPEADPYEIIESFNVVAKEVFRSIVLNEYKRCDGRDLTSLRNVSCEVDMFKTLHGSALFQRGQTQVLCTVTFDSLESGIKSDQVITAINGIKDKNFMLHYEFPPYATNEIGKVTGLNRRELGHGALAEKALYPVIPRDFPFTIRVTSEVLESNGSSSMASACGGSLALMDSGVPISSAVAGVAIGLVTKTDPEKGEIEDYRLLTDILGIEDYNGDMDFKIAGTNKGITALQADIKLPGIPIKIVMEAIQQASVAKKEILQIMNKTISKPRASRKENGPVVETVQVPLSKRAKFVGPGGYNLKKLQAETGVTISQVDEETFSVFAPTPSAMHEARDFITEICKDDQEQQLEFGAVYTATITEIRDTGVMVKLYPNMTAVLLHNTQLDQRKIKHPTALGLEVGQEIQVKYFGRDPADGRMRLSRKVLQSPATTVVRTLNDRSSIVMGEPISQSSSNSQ
UniProt Q9Y5B6: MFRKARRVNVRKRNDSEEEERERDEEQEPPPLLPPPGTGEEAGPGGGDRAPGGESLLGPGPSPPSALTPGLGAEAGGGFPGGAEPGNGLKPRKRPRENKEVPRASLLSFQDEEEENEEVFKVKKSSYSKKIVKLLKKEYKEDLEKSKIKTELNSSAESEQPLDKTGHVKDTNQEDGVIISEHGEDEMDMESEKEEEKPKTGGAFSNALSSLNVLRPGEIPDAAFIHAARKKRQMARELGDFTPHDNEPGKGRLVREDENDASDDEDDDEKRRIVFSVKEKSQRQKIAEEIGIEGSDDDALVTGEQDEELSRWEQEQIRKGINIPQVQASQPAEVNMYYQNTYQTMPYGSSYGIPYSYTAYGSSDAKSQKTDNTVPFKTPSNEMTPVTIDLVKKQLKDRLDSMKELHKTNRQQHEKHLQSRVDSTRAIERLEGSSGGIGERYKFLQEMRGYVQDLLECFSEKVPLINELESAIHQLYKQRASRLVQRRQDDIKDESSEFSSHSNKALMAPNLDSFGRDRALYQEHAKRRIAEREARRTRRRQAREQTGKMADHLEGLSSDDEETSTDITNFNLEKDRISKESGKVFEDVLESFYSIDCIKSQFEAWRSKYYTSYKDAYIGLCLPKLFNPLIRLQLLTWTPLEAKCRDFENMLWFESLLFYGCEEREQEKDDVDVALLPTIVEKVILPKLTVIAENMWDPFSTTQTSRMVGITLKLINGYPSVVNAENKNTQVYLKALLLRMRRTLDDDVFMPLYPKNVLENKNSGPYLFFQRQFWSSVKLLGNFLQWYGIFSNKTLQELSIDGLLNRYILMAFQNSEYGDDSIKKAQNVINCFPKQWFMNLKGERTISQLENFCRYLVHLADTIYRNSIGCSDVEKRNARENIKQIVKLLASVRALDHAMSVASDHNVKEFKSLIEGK
UniProt Q8IWS0: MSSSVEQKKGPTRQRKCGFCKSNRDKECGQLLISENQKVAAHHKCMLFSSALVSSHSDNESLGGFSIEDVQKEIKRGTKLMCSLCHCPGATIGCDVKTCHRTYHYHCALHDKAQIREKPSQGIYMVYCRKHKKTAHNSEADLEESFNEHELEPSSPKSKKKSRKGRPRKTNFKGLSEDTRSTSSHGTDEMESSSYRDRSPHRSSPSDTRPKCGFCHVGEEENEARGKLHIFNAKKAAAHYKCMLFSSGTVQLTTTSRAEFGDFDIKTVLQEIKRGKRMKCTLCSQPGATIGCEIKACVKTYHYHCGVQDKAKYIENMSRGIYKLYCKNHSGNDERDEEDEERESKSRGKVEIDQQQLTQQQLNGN
UniProt O15355: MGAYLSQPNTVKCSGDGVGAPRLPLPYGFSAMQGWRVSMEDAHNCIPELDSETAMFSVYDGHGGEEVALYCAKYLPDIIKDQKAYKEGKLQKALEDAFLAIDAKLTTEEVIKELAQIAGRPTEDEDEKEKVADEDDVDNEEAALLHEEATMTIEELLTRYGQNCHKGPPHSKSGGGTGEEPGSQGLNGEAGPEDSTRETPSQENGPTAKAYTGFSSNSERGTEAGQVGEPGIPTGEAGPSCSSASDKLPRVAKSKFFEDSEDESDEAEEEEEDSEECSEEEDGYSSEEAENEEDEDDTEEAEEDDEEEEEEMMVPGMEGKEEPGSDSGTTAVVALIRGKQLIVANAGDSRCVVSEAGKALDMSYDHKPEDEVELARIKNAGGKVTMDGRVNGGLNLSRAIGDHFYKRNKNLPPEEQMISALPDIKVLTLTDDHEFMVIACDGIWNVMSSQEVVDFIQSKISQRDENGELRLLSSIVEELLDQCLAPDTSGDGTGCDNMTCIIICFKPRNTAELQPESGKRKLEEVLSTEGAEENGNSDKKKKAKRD
UniProt P62937, whole entry, looked up: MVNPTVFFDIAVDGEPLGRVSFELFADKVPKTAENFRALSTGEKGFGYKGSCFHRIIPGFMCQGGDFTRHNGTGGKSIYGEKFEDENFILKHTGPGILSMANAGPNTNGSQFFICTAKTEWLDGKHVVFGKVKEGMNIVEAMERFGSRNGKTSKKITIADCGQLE
UniProt Q29RF7: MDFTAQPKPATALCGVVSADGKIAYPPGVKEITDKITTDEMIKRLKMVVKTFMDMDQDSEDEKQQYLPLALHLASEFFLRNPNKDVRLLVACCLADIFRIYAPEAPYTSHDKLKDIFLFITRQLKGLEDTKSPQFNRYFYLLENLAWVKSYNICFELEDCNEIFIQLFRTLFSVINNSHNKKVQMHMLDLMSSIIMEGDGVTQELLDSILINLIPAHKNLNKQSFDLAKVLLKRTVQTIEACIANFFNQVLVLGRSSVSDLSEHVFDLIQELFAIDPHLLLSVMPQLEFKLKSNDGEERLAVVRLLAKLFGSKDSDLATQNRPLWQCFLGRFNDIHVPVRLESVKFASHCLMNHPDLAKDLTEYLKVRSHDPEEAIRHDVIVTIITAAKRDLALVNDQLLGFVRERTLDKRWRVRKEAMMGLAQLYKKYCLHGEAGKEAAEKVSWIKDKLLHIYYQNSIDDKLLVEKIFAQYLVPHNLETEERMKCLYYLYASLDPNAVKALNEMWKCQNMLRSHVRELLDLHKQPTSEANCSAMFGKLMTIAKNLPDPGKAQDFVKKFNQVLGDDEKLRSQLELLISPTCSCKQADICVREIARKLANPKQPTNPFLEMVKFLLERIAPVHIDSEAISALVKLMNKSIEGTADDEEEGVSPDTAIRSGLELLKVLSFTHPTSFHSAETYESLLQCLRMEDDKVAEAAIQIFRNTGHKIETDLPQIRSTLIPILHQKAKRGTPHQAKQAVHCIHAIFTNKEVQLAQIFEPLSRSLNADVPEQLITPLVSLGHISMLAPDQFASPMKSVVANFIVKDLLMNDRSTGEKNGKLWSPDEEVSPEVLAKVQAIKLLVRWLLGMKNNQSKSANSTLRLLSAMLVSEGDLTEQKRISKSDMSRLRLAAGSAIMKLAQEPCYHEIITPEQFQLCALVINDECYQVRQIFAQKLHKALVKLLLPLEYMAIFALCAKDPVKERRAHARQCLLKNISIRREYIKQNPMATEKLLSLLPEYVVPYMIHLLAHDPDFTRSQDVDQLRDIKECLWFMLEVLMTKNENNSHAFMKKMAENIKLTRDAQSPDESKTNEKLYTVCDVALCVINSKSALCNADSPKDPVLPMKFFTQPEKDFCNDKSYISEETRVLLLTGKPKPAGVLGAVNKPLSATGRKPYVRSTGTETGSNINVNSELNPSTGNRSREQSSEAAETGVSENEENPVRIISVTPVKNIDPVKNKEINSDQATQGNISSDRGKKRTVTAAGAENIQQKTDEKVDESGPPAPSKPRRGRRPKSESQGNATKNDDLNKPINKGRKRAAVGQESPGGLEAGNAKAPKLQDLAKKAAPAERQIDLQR

Some of the results follow.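 The calls were made as follows: active = dose-dependent thermal stabilisation significant by F-test of dose-response against flat model at 10% FDR; inactive = not significant.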

Compound in the assay: Nc1nc2c(ncn2[C@@H]2O[C@H](COP(=O)(O)OP(=O)(O)OP(=O)(O)O)[C@@H](O)[C@H]2O)c(=O)[nH]1
Briefly: dose-dependent thermal stabilisation call (2D-TPP, DLPTP, 10% FDR) (binary (1 = stabilised)); higher = stabilised by the compound. The conditions noted are these: system: Jurkat gel-filtered lysate; concentration range 1-500 µM. The procedure: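 2D thermal proteome profiling in gel-filtered Jurkat E6.1 lysate (2 mg/ml) treated with NaGTP (0, 1, 10, 100, 500 uM) for 10 min at room temperature, then heated 3 min at one of 12 temperatures (42-63.9 C). Soluble protein was quantified by TMT10 MS. The value is the DLPTP call of the paper: dose-dependent thermal stabilisation over all temperatures at 10% FDR (F-test of a dose-response against a flat model); one experiment, one call per tested protein.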
Turning to PRDX5 (UniProt P30044), the “dose-dependent thermal stabilisation call” value is inactive: 0.

Take PPP1R13L (UniProt Q8WUF5): the “dose-dependent thermal stabilisation call” value is inactive: 0.

Regarding PCTP (UniProt Q9UKL6), the “dose-dependent thermal stabilisation call” value was active: 1.

For POLK (UniProt Q9UBT6), the “dose-dependent thermal stabilisation call” value was inactive: 0.

Take PDIA4 (UniProt P13667): the “dose-dependent thermal stabilisation call” value was inactive: 0.

For PNMA2 (UniProt Q9UL42), the “dose-dependent thermal stabilisation call” value is inactive: 0.

On to PEPD (UniProt P12955), for which the “dose-dependent thermal stabilisation call” value was inactive: 0.

On to PFKL (UniProt P17858), for which the “dose-dependent thermal stabilisation call” value was active: 1.

With PPP3CA (UniProt Q08209), the “dose-dependent thermal stabilisation call” value is inactive: 0.

On to PLCG2 (UniProt P16885), for which the “dose-dependent thermal stabilisation call” value is active: 1.

As to PIK3CB (UniProt P42338), the “dose-dependent thermal stabilisation call” value was active: 1.

Regarding PPM1B (UniProt O75688), the “dose-dependent thermal stabilisation call” value is inactive: 0.

Take PCIF1 (UniProt Q9H4Z3): the “dose-dependent thermal stabilisation call” value is active: 1.

Turning to PHF5A (UniProt Q7RTV0), the “dose-dependent thermal stabilisation call” value was inactive: 0.

Consider PGM2L1 (UniProt Q6PCE3), for which the “dose-dependent thermal stabilisation call” value was inactive: 0.

For the target PDRG1 (UniProt Q9NUG6), the “dose-dependent thermal stabilisation call” value was inactive: 0.

Regarding PFN1 (UniProt P07737), the “dose-dependent thermal stabilisation call” value was active: 1.

With PGD (UniProt P52209), the “dose-dependent thermal stabilisation call” value is inactive: 0.

Regarding PLCG1 (UniProt P19174), the “dose-dependent thermal stabilisation call” value is active: 1.

Consider PCNT (UniProt O95613), for which the “dose-dependent thermal stabilisation call” value was inactive: 0.

For the target PPP5C (UniProt P53041), the “dose-dependent thermal stabilisation call” value was inactive: 0.

On to PNPT1 (UniProt Q8TCS8), for which the “dose-dependent thermal stabilisation call” value is inactive: 0.

On to POLR3C (UniProt Q9BUI4), for which the “dose-dependent thermal stabilisation call” value is inactive: 0.

As for PDIA5 (UniProt Q14554), the “dose-dependent thermal stabilisation call” value was inactive: 0.

As for PCLAF (UniProt Q15004), the “dose-dependent thermal stabilisation call” value is inactive: 0.

Consider PAXBP1 (UniProt Q9Y5B6), for which the “dose-dependent thermal stabilisation call” value was inactive: 0.

Regarding PFDN2 (UniProt Q9UHV9), the “dose-dependent thermal stabilisation call” value is inactive: 0.

For the target PFDN4 (UniProt Q9NQP4), the “dose-dependent thermal stabilisation call” value is inactive: 0.

In the case of PHF6 (UniProt Q8IWS0), the “dose-dependent thermal stabilisation call” value is inactive: 0.

For PAXIP1 (UniProt Q6ZW49), the “dose-dependent thermal stabilisation call” value is inactive: 0.

As for PLCB1 (UniProt Q9NQ66), the “dose-dependent thermal stabilisation call” value is active: 1.

On to PPIH (UniProt O43447), for which the “dose-dependent thermal stabilisation call” value was inactive: 0.

In the case of PGK2 (UniProt P07205), the “dose-dependent thermal stabilisation call” value is active: 1.

In the case of PPM1G (UniProt O15355), the “dose-dependent thermal stabilisation call” value is inactive: 0.

Regarding PHKB (UniProt Q93100), the “dose-dependent thermal stabilisation call” value was inactive: 0.

PM20D2 (UniProt Q8IYS1): the “dose-dependent thermal stabilisation call” value is inactive: 0.

With POLR2D (UniProt O15514), the “dose-dependent thermal stabilisation call” value is inactive: 0.

In the case of PPIA (UniProt P62937), the “dose-dependent thermal stabilisation call” value was inactive: 0.

On to PDS5A (UniProt Q29RF7), for which the “dose-dependent thermal stabilisation call” value is inactive: 0.

With POFUT1 (UniProt Q9H488), the “dose-dependent thermal stabilisation call” value is inactive: 0.
